According to patent US20250034268A1:
Results are given in words; binding and its absence hold for the method and conditions named. Binding can be weak; no strength is given.

Experiments:
[1] = target: recombinant rat BCMA protein (rat); experiment: SPR (Biacore T200)
[2] = target: recombinant rat BCMA protein (rat); experiment: SPR (Biacore T200), antibody captured by anti-human Fc IgG on a CM5 chip, BCMA in the mobile phase; concentrations are not printed on the sheet

B1: ADI-38497 PG antibody (antibody, V domains shown)
VH: QLQLQESGPGLVKPSETLSLTCTVSGGSIVSSSYYWTWIRQPPGKGLEWIGSISIAGSTYYNPSLKSRVTISVDTSKNQFSLKLSSVTAADTAVYYCARDRGDQILDVWSQGTMVTVSS
VL: DIQMTQSPSSLSASVGDRVTITCRASQSISRYLNWYQQKPGKAPKLLIYAASSLQSGVPSRFSGSGSGTDFTLTISSLQPEDFATYYCQQKYFDITFGGGTKVEIKR
binding [1]: binds
binding [2]: binds
